Data as given in PubChem BioAssay AID743454 (Peter MacCallum Cancer Centre, 2014).
The deposit covers about 18,000 reagents; shown is a random part of them. 450 of all reagents (2.5%) count as active. 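Single biological run; no consistent viability z cut-off exists, so the class columns, not z-scores, define the calls.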 Unmarked entries are inactive.

Test: 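Knock-downs lowering viability or raising caspase 3/7 activity in vorinostat-treated resistant cells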 (primary screen)
Cell system: human HCT116-VR colon cancer cells, selected for vorinostat resistance
Reagent: siRNA pool against human genes, 40 nM siRNA pool
Duration: vorinostat for 24 h, read-out about 72 h after transfection
Treatment: vorinostat at 2.5 µM final
Detection: 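Two measures, CellTiter-Fluor viability and luminescent caspase 3/7 activity, each as fold change against same-plate mock wells, mean of duplicates, then screen-wide robust z-score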
Reading the numbers: viability robust z-score: higher = more viable cells than screen typical; caspase robust z-score: higher = more caspase 3/7 activity than screen typical
Call rule: 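a knock-down is a hit when classed RV1 or RV2 for lowered viability, or CA1 or CA2 for caspase activation; those lethal without drug were dropped; hits were retested singly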

no.	gene	viability hit class	caspase hit class	viability robust z-score	caspase robust z-score
1	RPS12	no change	no change	-3.54	-1.62
2	SLC22A1	no change	no change	-0.4	-0.26
3	MYC	no change	no change	-1.44	-1.07
4	INTS1	no change	no change	-1.14	2.5
5	FDX1	no change	no change	-0.17	-0.44
6	ATXN3	no change	no change	0.38	0.11
7	SOS2	no change	no change	0.26	-1.21
8	FADS6	no change	no change	-0.08	-0.12
9	VWA8	no change	no change	0.03	-0.62
10	PHF12	no change	no change	-0.63	-0.55
11	VWA5B1	no change	no change	0.58	0.42
12	S100A5	no change	no change	1.3	1.15
13	EPPIN	no change	no change	0.18	-0.3
14	ARSJ	no change	no change	-0.96	0.55
15	CABP4	no change	no change	1.22	-0.3
16	SCG2	no change	no change	0.44	-0.6
17	KRT27	no change	no change	0.55	-0.81
18	SEBOX	no change	no change	-0.52	-1.05
19	OR10A2	no change	no change	-2.23	1.43
20	RBM17	no change	no change	-2.27	2.5
21	CCL11	no change	no change	-0.28	-0.24
22	COG4	no change	no change	-0.28	-0.32
23	RAB11FIP1	no change	no change	0.75	-0.26
24	NATD1	no change	no change	1.88	-0.5
25	RSPH6A	no change	no change	0.02	-0.36
26	LOC642219 (retired record)	no change	no change	0.26	1.06
27	PGA5	no change	no change	0.76	-0.88
28	GPBP1	no change	no change	0.34	-0.28
29	CT47A5	no change	no change	-0.2	2.44
30	RBP3	no change	no change	-0.69	0.9
31	CYP4F2	no change	no change	-0.07	-0.41
32	SNRPD1	no change	no change	-3.2	0.7
33	NT5M	no change	no change	-0.64	-0.7
34	MED1	no change	no change	0.56	-0.68
35	HPS1	no change	no change	1.09	1.71
36	MRPL37	no change	no change	0.03	-0.24
37	NKAIN3	no change	no change	0.8	1.86
38	TMSB10	no change	no change	0.36	0.12
39	RPS6KC1	no change	no change	0.14	0.75
